{"source": "paper PMC6886185", "target": "eIF4H (UniProt Q15056)", "experiment": "competition with a labelled probe", "settings": "strand release by unlabelled (AG)10, low clamping vs eIF4A; 20 mM Hepes/KOH pH 7.5, 100 (mM) KCl, 1 mM MgCl2, 1 mM AMP-PNP, 1 mM TCEP, 0.1% DMSO, +/-50 uM silvestrol (10 uM in Fig 4a legend), 60 min, 25 C; recombinant protein; protein details: SUMO tag cleaved; label: 5' FAM", "note": "Construct, isoform or probe ends are uncertain for at least one entry. The comparison behind a weaker result is the experiment's own reference, which may not be listed here. At least one verdict rests on a figure or table, not on a statement of the authors.", "data": [{"sequence": "AGAGAGAGAGAGAGAGAGAG [(AG)10 ssRNA]", "values": [{"measurement": "binding result", "value": "binds more weakly"}]}]}
